Test results as given in publication PMC11696352.

The chains behind the UniProt entries cited, without tags or fusion partners.
UniProt P52294: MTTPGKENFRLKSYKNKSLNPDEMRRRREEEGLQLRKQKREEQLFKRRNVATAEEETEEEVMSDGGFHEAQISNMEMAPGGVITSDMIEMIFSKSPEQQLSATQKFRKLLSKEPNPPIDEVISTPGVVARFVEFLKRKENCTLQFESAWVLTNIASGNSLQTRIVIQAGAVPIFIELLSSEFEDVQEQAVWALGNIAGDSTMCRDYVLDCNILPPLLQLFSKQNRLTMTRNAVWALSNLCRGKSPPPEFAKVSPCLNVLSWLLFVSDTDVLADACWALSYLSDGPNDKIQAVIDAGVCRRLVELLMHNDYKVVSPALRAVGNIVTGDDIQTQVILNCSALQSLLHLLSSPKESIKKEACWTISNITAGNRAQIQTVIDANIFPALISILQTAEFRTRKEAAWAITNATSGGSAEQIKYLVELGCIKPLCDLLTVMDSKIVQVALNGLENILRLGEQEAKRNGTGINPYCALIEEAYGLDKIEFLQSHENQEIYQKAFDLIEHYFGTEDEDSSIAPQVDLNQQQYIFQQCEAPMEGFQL

Experiments:
[1] = biological target: T1, Flag-tagged GCLM WT (glutamate-cysteine ligase modifier subunit) (UniProt P48507); test: affinity purification with mass spectrometry; anti-FLAG or IgG immunoprecipitation from total lysate or cytoplasmic and nuclear fractions of 293T cells overexpressing Flag-GCLM, oxaliplatin treatment (40 μM, 24 h); LC-MS/MS
T1 sequence: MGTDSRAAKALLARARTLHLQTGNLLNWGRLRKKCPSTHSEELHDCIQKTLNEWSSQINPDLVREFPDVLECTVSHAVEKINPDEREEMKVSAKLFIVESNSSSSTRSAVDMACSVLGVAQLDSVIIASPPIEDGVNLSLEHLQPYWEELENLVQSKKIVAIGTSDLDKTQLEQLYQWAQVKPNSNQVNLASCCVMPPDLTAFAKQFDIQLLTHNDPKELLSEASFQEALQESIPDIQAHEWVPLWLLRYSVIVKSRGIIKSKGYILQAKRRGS

[2] = biological target: T1, Flag-tagged GCLM WT (glutamate-cysteine ligase modifier subunit); test: as above; remark: listed apart in the source

binding [1]: binds
Molecule: importin α5 (also known as KPNA1), endogenous (from UniProt P52294 1-538)

binding [2]: binds
B1: NF-κB-repressing factor (NKRF), endogenous (protein, UniProt O15226 1-690)
chain: MEKILQMAEGIDIGEMPSYDLVLSKPSKGQKRHLSTCDGQNPPKKQAGSKFHARPRFEPVHFVASSSKDERQEDPYGPQTKEVNEQTHFASMPRDIYQDYTQDSFSIQDGNSQYCDSSGFILTKDQPVTANMYFDSGNPAPSTTSQQANSQSTPEPSPSQTFPESVVAEKQYFIEKLTATIWKNLSNPEMTSGSDKINYTYMLTRCIQACKTNPEYIYAPLKEIPPADIPKNKKLLTDGYACEVRCQNIYLTTGYAGSKNGSRDRATELAVKLLQKRIEVRVVRRKFKHTFGEDLVVCQIGMSSYEFPPALKPPEDLVVLGKDASGQPIFNASAKHWTNFVITENANDAIGILNNSASFNKMSIEYKYEMMPNRTWRCRVFLQDHCLAEGYGTKKTSKHAAADEALKILQKTQPTYPSVKSSQCHTGSSPRGSGKKKDIKDLVVYENSSNPVCTLNDTAQFNRMTVEYVYERMTGLRWKCKVILESEVIAEAVGVKKTVKYEAAGEAVKTLKKTQPTVINNLKKGAVEDVISRNEIQGRSAEEAYKQQIKEDNIGNQLLRKMGWTGGGLGKSGEGIREPISVKEQHKREGLGLDVERVNKIAKRDIEQIIRNYARSESHTDLTFSRELTNDERKQIHQIAQKYGLKSKSHGVGHDRYLVVGRKRRKEDLLDQLKQEGQVGHYELVMPQAN

Read-outs that look alike come from different tables or passages of the source. No constants are given. Whether binding was seen depends on the method and setting. Binding seen in cells or lysates may run through a third protein. A yes stands for co-enrichment or nearness to the bait. Other partners may have been found. Sequences can lack the tags named with a protein. One block for each molecule: values may come before it.
